# PubChem BioAssay AID1508588, Peter MacCallum Cancer Centre – 2020
# Assay: 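Genome-wide search for knock-downs that heighten vemurafenib action in melanoma cells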 (primary screen)
# Cells: human WM266.4 melanoma cells (BRAF V600 mutant)
# Knock-down reagent: siRNA pool against human genes, 40 nM
# Duration: 96 h from transfection to read-out
# Challenge: vemurafenib 300 nM (about IC25), added 48 h after transfection, for 48 h; comparison arm got DMSO vehicle only
# Measurement: 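Cell gain (DAPI nuclei at end minus before drug, mean of two replicates) and medium lactate by absorbance per cell, both as ratio to non-targeting siRNA, also grouped into fold-change classes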
# Reading the numbers: cell gain with vemurafenib: higher = more cell gain than with non-targeting siRNA; lactate per cell with vemurafenib: higher = more lactate made per cell
# Call rule: 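Enhancement is called by pairing each knock-down's vehicle-arm and drug-arm fold-change classes for viability or glycolysis; which class combinations qualify is not given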
# Meaning of the calls: active = enhances vemurafenib effect; inactive = no enhancement seen
# Shown is one part, drawn at random, of about 18,000 reagents tested. In the full data, 790 (4.4%) were called active. 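Calls rest on a combination of fold-change classes in drug and vehicle arms, not all shown here.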 Reagents against one gene are numbered here. No sequences are given here.
target gene,reagent,cell gain with vemurafenib,lactate per cell with vemurafenib,activity call
INSR (insulin receptor),1,0.31,1.6,inactive
CEP126 (centrosomal protein 126),1,0.86,0.84,inactive
ZNF750 (zinc finger protein 750),1,0.71,1.19,inactive
DKK2 (dickkopf Wnt signaling pathway inhibitor 2),1,0.42,1.12,inactive
IL6R (interleukin 6 receptor),1,0.29,1.19,inactive
PPP2R3C (protein phosphatase 2 regulatory subunit B''gamma),1,0.2,0.56,inactive
CGAS (cyclic GMP-AMP synthase),1,0.54,0.32,active
UTRN (utrophin),1,1.03,0.92,inactive
PEG3 (paternally expressed 3),1,0.29,0.38,inactive
NCF1 (neutrophil cytosolic factor 1),1,0.52,1.29,inactive
FRMD7 (FERM domain containing 7),1,0.12,1.54,inactive
TAF7 (TATA-box binding protein associated factor 7),1,0.67,0.92,inactive
SPEF1 (sperm flagellar and cilia associated 1),1,0.34,1.56,inactive
MLH3 (mutL homolog 3),1,1.01,1.06,inactive
KCNA10 (potassium voltage-gated channel subfamily A member 10),1,0.68,0.52,inactive
TMC6 (transmembrane channel like 6),1,0.35,0.72,inactive
NXPE3 (neurexophilin and PC-esterase domain family member 3),1,0.95,0.77,inactive
DXO (decapping exoribonuclease),1,0.29,0.28,inactive
SVIL (supervillin),1,0.5,0.7,active
PAX3 (paired box 3),1,0.76,0.62,inactive
LRRC45 (leucine rich repeat containing 45),1,0.55,0.66,inactive
ALDH9A1 (aldehyde dehydrogenase 9 family member A1),1,0.24,1.91,inactive
ATP5ME (ATP synthase membrane subunit e),1,0.65,1.48,inactive
"RFTN1 (raftlin, lipid raft linker 1)",1,0.76,0.87,inactive
DLEC1 (DLEC1 cilia and flagella associated protein),1,0.89,0.7,inactive
PVR (PVR cell adhesion molecule),1,0.84,0.46,inactive
TYW5 (tRNA-yW synthesizing protein 5),1,0.34,1.01,inactive
FBXO17 (F-box protein 17),1,0.36,2.24,inactive
TARS1 (threonyl-tRNA synthetase 1),1,0.53,0.92,inactive
NUDT8 (nudix hydrolase 8),1,0.4,0.42,inactive
WIPF2 (WAS/WASL interacting protein family member 2),1,0.4,0.55,inactive
ZNF319 (zinc finger protein 319),1,0.6,0.7,inactive
RIGI (RNA sensor RIG-I),1,0.61,1.31,inactive
MRPL16 (mitochondrial ribosomal protein L16),1,0.66,1.12,inactive
CCDC197 (coiled-coil domain containing 197),1,0.14,1.67,inactive
ENDOG (endonuclease G),1,0.5,1.73,inactive
DPH1 (diphthamide biosynthesis 1),1,0.74,1.19,inactive
PPIC (peptidylprolyl isomerase C),1,0.44,0.86,inactive
ZNF277 (zinc finger protein 277),1,0.83,0.91,inactive
NCS1 (neuronal calcium sensor 1),1,0.6,0.97,inactive
TCEAL6 (transcription elongation factor A like 6),1,0.58,1.35,inactive
NAAA (N-acylethanolamine acid amidase),1,0.39,1.02,inactive
"CEACAM16 (CEA cell adhesion molecule 16, tectorial membrane component)",1,0.48,1.11,inactive
POF1B (POF1B actin binding protein),1,0.52,0.44,inactive
IL26 (interleukin 26),1,0.93,0.5,inactive
BRF2 (BRF2 general transcription factor IIIB subunit),1,1,1.04,inactive
SCNN1A (sodium channel epithelial 1 subunit alpha),1,0.93,0.12,inactive
LYPD5 (LY6/PLAUR domain containing 5),1,0.49,2.36,inactive
KIF11 (kinesin family member 11),1,0,2.62,inactive
ESCO2,1,0.71,0.38,inactive
KRTAP4-12 (keratin associated protein 4-12),1,0.61,1,inactive
CRHR1 (corticotropin releasing hormone receptor 1),1,0.42,0.66,active
DDI1 (DDI proteasomal shuttling factor 1),1,0.35,0.88,inactive
CPA1 (carboxypeptidase A1),1,0.45,0.44,active
COA6 (cytochrome c oxidase assembly factor 6),1,0.43,1.72,inactive
NCKAP1L (NCK associated protein 1 like),1,-0.07,0.82,inactive
PAQR4 (progestin and adipoQ receptor family member 4),1,0.32,1.27,inactive
KCTD21 (potassium channel tetramerization domain containing 21),1,0.7,0.91,inactive
"SETD2 (SET domain containing 2, histone lysine methyltransferase)",1,0.59,0.94,inactive
AXL (AXL receptor tyrosine kinase),1,0.71,0.18,active
PXYLP1 (2-phosphoxylose phosphatase 1),1,0.69,1.02,inactive
HDAC7 (histone deacetylase 7),1,0.78,0.76,inactive
MAD2L1 (mitotic arrest deficient 2 like 1),1,0.39,1.04,inactive
"NUBPL (NUBP iron-sulfur cluster assembly factor, mitochondrial)",1,0.55,1.28,inactive
USP20 (ubiquitin specific peptidase 20),1,0.32,0.93,inactive
ZNF708 (zinc finger protein 708),1,0.64,1.34,inactive
DENND1B (DENN domain containing 1B),1,0.65,1.25,inactive
DENND1B (DENN domain containing 1B),2,0.41,0.55,inactive
PLA2G2F (phospholipase A2 group IIF),1,0.04,0.67,inactive
YAF2 (YY1 associated factor 2),1,0.47,1.36,inactive
YTHDF1 (YTH N6-methyladenosine RNA binding protein F1),1,0.86,0.67,inactive
SPATA20 (spermatogenesis associated 20),1,0.36,2.23,inactive
"ENDOU (endonuclease, poly(U) specific)",1,0.96,0.96,inactive
"FGD3 (FYVE, RhoGEF and PH domain containing 3)",1,0.51,0.75,inactive
PDSS1 (decaprenyl diphosphate synthase subunit 1),1,0.92,1.09,inactive
EPHA10 (EPH receptor A10),1,0.19,-0.02,active
CA1 (carbonic anhydrase 1),1,0.95,0.4,inactive
AKIP1 (A-kinase interacting protein 1),1,0.07,1.7,inactive
LURAP1L (leucine rich adaptor protein 1 like),1,0.9,0.7,inactive
PGBD1 (piggyBac transposable element derived 1),1,0.56,0.46,active
TRPV4,1,0.43,0.98,inactive
SLC52A1,1,0.7,0.92,inactive
GATA4 (GATA binding protein 4),1,0.61,0.91,inactive
INO80E (INO80 complex subunit E),1,0.95,0.26,inactive
